Laboratory results: PubChem BioAssay AID504791 (Drosophila RNAi Screening Center, 2011)
Purpose: 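Factors in Argonaute-based small RNA production and activity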 (primary screen). System: Drosophila S2-derived reporter cells. Reagents: long dsRNA against Drosophila genes, about 150-250 ng dsRNA per well (siRNA assay); about 80-120 ng (miRNA assay). Time to read-out: about 5 days (siRNA assay); about 4 days (miRNA assay). Challenge: copper sulfate induction of reporters: 25 µM (siRNA assay); 200 mM stated (miRNA assay), 1-2 days before reading. Read-out: 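Dual luciferase assay: Renilla to firefly signal ratio in each well, scaled to the mean ratio of its plate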. Units: stable assay Renilla, run 1 in luminescence; stable assay firefly, run 1 in luminescence. Active means: 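a well was a first-pass pick when its plate-scaled ratio rose above 1.5 (siRNA assay) or 1.6 (miRNA assay), or dropped below 0.6; a gene counted only if two separate dsRNAs agreed on retest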.
The deposit covers about 23,000 reagents; shown is a random part of those that have a named target and a result. In the full data, 199 (0.86%) were called active. 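Plate-scaled ratios behind the calls are not deposited; printed light signals are raw; many rows marked increased or decreased are still called inactive.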 Entries without a mark were called inactive. Reagents against one gene are numbered here. Not stated in the record: the direction of the score.

After knock-down of CG7333 the results were miRNA reporter change reporter ratio raised past the hit cutoff; stable assay Renilla, run 1 = 8178; stable assay firefly, run 1 = 4.66e5. Against Ctps (CTP synthase) #1, the values are stable assay Renilla, run 1 = 3703; stable assay firefly, run 1 = 3.51e5. For Ctps (CTP synthase) #2, the entry reads stable assay Renilla, run 1 = 8485; stable assay firefly, run 1 = 2.53e5. Knock-down of Ctps (CTP synthase) #3 resulted in: stable assay Renilla, run 1 = 5151; stable assay firefly, run 1 = 3.34e5. Depletion of CG4161 gave: stable assay Renilla, run 1 = 7158; stable assay firefly, run 1 = 3.38e5. Against CG32365 #1, the values are stable assay Renilla, run 1 = 6682; stable assay firefly, run 1 = 3.79e5.

CG32365 #2 gave stable siRNA reporter change reporter ratio raised past the hit cutoff; stable assay Renilla, run 1 = 5135; stable assay firefly, run 1 = 1.94e5. CG32365 #3 gave stable assay Renilla, run 1 = 3700; stable assay firefly, run 1 = 2.28e5. After knock-down of PlexB (Plexin B) the results were stable assay Renilla, run 1 = 6671; stable assay firefly, run 1 = 3.78e5. Against CG11951 the deposit lists stable assay Renilla, run 1 = 7300; stable assay firefly, run 1 = 3.57e5. For CG32263, the values are stable assay Renilla, run 1 = 5602; stable assay firefly, run 1 = 5.20e5. Silencing of CG15517 resulted in: stable assay Renilla, run 1 = 5715; stable assay firefly, run 1 = 3.26e5.

With knock-down of Fadd (Fas-associated death domain), the screen gave stable assay Renilla, run 1 = 6774; stable assay firefly, run 1 = 3.18e5. Silencing of Klp59C (Kinesin-like protein at 59C) resulted in: stable assay Renilla, run 1 = 6086; stable assay firefly, run 1 = 3.25e5. For CG8509, the entry reads stable assay Renilla, run 1 = 7920; stable assay firefly, run 1 = 5.66e5. Against CG9231 the deposit lists stable assay Renilla, run 1 = 9657; stable assay firefly, run 1 = 4.67e5.

No new results follow: 5 of the entries above.
CG32365 #2 → stable siRNA reporter change = reporter ratio raised past the hit cutoff; stable assay Renilla, run 1 = 5135; stable assay firefly, run 1 = 1.94e5
CG32365 #3 → stable assay Renilla, run 1 = 3700; stable assay firefly, run 1 = 2.28e5
PlexB (Plexin B) → stable assay Renilla, run 1 = 6671; stable assay firefly, run 1 = 3.78e5
CG11951 → stable assay Renilla, run 1 = 7300; stable assay firefly, run 1 = 3.57e5
CG32263 → stable assay Renilla, run 1 = 5602; stable assay firefly, run 1 = 5.20e5

More records follow:
With knock-down of Dnah3 (dynein, axonemal, heavy chain 3) #1, the record shows stable assay Renilla, run 1 = 5024; stable assay firefly, run 1 = 4.98e5. Knock-down of Dnah3 (dynein, axonemal, heavy chain 3) #2 came out at: stable assay Renilla, run 1 = 7094; stable assay firefly, run 1 = 5.19e5. Knock-down of Leash gave: stable assay Renilla, run 1 = 6214; stable assay firefly, run 1 = 3.72e5. With knock-down of CG33521 #1 the results were stable assay Renilla, run 1 = 10245; stable assay firefly, run 1 = 4.91e5. Silencing of CG33521 #2 gave: stable assay Renilla, run 1 = 5848; stable assay firefly, run 1 = 3.85e5. Silencing of CG33521 #3 resulted in: stable assay Renilla, run 1 = 2751; stable assay firefly, run 1 = 3.61e5.

CG16922 (retired record) #1 gave stable assay Renilla, run 1 = 5086; stable assay firefly, run 1 = 3.19e5. With knock-down of CG16922 (retired record) #2, the screen gave stable assay Renilla, run 1 = 4671; stable assay firefly, run 1 = 3.05e5. zetaTry (zetaTrypsin) showed stable assay Renilla, run 1 = 6251; stable assay firefly, run 1 = 3.07e5. CG16985 gave stable assay Renilla, run 1 = 7302; stable assay firefly, run 1 = 4.38e5. After knock-down of CG17283, the record shows stable assay Renilla, run 1 = 7844; stable assay firefly, run 1 = 4.07e5. Against Rtnl1 (Reticulon-like1) #1 the deposit lists stable assay Renilla, run 1 = 5267; stable assay firefly, run 1 = 4.06e5.

Rtnl1 (Reticulon-like1) #2 showed stable assay Renilla, run 1 = 12408; stable assay firefly, run 1 = 1.64e5. After knock-down of Rtnl1 (Reticulon-like1) #3 the results were stable assay Renilla, run 1 = 13956; stable assay firefly, run 1 = 1.80e5. Silencing of Rtnl1 (Reticulon-like1) #4 gave: stable assay Renilla, run 1 = 9650; stable assay firefly, run 1 = 5.42e5.
